Reference: patent US20190225686A1
No constants are given. Whether binding was seen depends on the method and setting. Some binding calls cover weakened binding; strength is not graded here.

By UniProt entry, the sequences of proteins in these tests, tags left out. Where a name states a change or a piece, a line headed by the entry shows the natural chain unless it says otherwise.
UniProt Q99678: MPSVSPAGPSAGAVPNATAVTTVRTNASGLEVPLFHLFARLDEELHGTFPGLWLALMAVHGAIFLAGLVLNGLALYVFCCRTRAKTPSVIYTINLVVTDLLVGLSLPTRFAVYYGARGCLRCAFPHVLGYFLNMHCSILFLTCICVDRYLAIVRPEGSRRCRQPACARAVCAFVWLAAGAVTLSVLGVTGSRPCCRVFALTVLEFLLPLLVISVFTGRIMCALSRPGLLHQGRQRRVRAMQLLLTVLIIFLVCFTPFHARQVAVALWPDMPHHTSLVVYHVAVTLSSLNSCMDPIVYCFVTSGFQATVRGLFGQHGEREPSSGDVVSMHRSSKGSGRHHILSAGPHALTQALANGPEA

Molecular target: human GPR20 (human) (UniProt Q99678)
Assay: flow cytometry on 293T cells transfected with pcDNA3.1-hGPR20

B1: humanized h046-Hwt/L6 (antibody, human IgG1, kappa, V domains shown)
VH: QVQLQQSGAELAKPGSSVKISCKASGYTFTSYYISWIKQTTGQGLKYIGFINPGSGHTNYNEKFKGKATLTVDKSSSTAFMQLSSLTPDDSAIYYCARGAGGFLRIITKFDYWGQGVMVTVSS
VL: DTQLTQSPSSLSASVGDRVTITCRASKSVSTYIHWYQQKPGKQPKLLIYSASDRESGVPSRFSGSGSGTDFTLTISSLQPEDFANYYCQQINELPYTFGQGTKVEIKR
  binding: binds
